{"sequences": {"note": "By UniProt entry, the sequences of proteins in these tests, tags left out.", "UniProt P10721, whole entry D816V": "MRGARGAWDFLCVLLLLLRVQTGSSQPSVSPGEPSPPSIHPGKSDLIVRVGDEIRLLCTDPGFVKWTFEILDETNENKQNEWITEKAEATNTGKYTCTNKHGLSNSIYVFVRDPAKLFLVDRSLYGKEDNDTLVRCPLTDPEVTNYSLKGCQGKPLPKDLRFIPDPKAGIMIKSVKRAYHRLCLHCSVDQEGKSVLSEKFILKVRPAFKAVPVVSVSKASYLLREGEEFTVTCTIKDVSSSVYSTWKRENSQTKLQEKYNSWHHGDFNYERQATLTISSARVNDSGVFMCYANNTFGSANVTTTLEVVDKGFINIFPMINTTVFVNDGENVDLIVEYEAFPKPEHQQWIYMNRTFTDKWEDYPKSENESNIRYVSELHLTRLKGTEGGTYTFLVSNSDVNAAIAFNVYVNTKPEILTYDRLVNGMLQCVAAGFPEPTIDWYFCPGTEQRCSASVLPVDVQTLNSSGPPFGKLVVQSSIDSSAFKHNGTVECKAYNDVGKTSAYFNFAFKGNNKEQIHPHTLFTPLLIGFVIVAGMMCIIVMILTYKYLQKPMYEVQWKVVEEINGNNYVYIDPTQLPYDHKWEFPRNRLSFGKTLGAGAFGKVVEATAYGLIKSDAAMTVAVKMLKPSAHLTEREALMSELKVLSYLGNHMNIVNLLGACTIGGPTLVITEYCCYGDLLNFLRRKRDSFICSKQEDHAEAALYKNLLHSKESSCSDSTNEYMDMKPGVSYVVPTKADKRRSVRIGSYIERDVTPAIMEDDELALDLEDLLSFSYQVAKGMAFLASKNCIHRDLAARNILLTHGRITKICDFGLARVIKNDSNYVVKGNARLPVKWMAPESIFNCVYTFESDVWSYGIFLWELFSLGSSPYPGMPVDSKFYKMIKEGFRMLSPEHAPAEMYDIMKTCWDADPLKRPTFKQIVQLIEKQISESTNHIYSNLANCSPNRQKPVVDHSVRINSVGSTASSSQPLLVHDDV"}, "source": "patent US10227357B2", "about": "“Compounds and methods for kinase modulation, and indications therefor” (Plexxikon Inc., priority 2012, dated 2019)", "note": "Some entries share one result that the patent states for a list of compounds."}
{"target": "BaF3-FL KIT D816V cells (Homo sapiens, UniProt P10721, D816V, cells depend on it, form not given)", "assay": "Cell-based assay of c-Kit mutant kinase activity, BaF3-FL KIT D816V cell proliferation (ATPlite)", "settings": "in at least one of the c-kit cell assays described in Example 28 (BaF3-FL KIT D816V or BaF3-FL KIT V560G/D816V); read-out: IC50 (the source's name)", "units": {"GI50": "µM"}}
{"smiles": "Cn1cc(-c2cc3c(N4CCC(NS(=O)(=O)c5cc(Cl)c(Cl)s5)CC4)ncnc3[nH]2)cn1", "note": "[P-0461, 4,5-dichloro-N-[1-[6-(1-methylpyrazol-4-yl)-7H-pyrrolo[2,3-d]pyrimidin-4-yl]-4-piperidyl]thiophene-2-sulfonamide]", "GI50": "< 10"}
{"smiles": "Cn1cc(-c2cc3c(N4CCC(NS(=O)(=O)c5cc(Cl)cs5)CC4)ncnc3[nH]2)cn1", "note": "[P-0462, 4-chloro-N-[1-[6-(1-methylpyrazol-4-yl)-7H-pyrrolo[2,3-d]pyrimidin-4-yl]-4-piperidyl]thiophene-2-sulfonamide]", "GI50": "< 10"}
{"smiles": "Cc1ncc(-c2cc3c(N4CCC(NS(=O)(=O)c5ccc(OC(F)(F)F)cc5)CC4)ncnc3[nH]2)s1", "note": "[P-0463, N-[1-[6-(2-methylthiazol-5-yl)-7H-pyrrolo[2,3-d]pyrimidin-4-yl]-4-piperidyl]-4-(trifluoromethoxy)benzenesulfonamide]", "GI50": "< 10"}
{"smiles": "N#Cc1ccc(-c2cc3c(N4CCC(NS(=O)(=O)c5ccc(OC(F)(F)F)cc5)CC4)ncnc3[nH]2)cc1", "note": "[P-0464, N-[1-[6-(4-cyanophenyl)-7H-pyrrolo[2,3-d]pyrimidin-4-yl]-4-piperidyl]-4-(trifluoromethoxy)benzenesulfonamide]", "GI50": "< 10"}
{"smiles": "COc1ncc(-c2cc3c(N4CCC(NS(=O)(=O)c5ccc(OC(F)(F)F)cc5)CC4)ncnc3[nH]2)cn1", "note": "[P-0465, N-[1-[6-(2-methoxypyrimidin-5-yl)-7H-pyrrolo[2,3-d]pyrimidin-4-yl]-4-piperidyl]-4-(trifluoromethoxy)benzenesulfonamide]", "GI50": "< 10"}
{"smiles": "O=S(=O)(NC1CCN(c2ncnc3[nH]c(-c4ccc(Cl)cc4)cc23)CC1)c1cnn(C2CCCC2)c1", "note": "[P-0466, N-[1-[6-(4-chlorophenyl)-7H-pyrrolo[2,3-d]pyrimidin-4-yl]-4-piperidyl]-1-cyclopentyl-pyrazole-4-sulfonamide]", "GI50": "< 10"}
{"smiles": "O=S(=O)(NC1CCN(c2ncnc3[nH]c(-c4ccc(Cl)cc4)cc23)CC1)c1cc2ccccc2s1", "note": "[P-0467, N-[1-[6-(4-chlorophenyl)-7H-pyrrolo[2,3-d]pyrimidin-4-yl]-4-piperidyl]benzothiophene-2-sulfonamide]", "GI50": "< 10"}
{"smiles": "CC(C)Oc1ccc(S(=O)(=O)NC2CCN(c3ncnc4[nH]c(-c5ccc(Cl)cc5)cc34)CC2)cc1", "note": "[P-0468, N-[1-[6-(4-chlorophenyl)-7H-pyrrolo[2,3-d]pyrimidin-4-yl]-4-piperidyl]-4-isopropoxy-benzenesulfonamide]", "GI50": "< 10"}
{"smiles": "CN(C)S(=O)(=O)NC1CCN(c2ncnc3[nH]c(-c4cnn(C)c4)cc23)CC1", "note": "[P-0469, 4-[4-(dimethylsulfamoylamino)-1-piperidyl]-6-(1-methylpyrazol-4-yl)-7H-pyrrolo[2,3-d]pyrimidine]", "GI50": "< 10"}
{"smiles": "Cn1cc(-c2cc3c(N4CCC(NS(=O)(=O)c5cc6ccccc6s5)CC4)ncnc3[nH]2)cn1", "note": "[P-0470, N-[1-[6-(1-methylpyrazol-4-yl)-7H-pyrrolo[2,3-d]pyrimidin-4-yl]-4-piperidyl]benzothiophene-2-sulfonamide]", "GI50": "< 10"}
{"smiles": "O=S(=O)(NC1CCN(c2ncnc3[nH]c(C#CC4CC4)cc23)CC1)c1ccc(Cl)cc1", "note": "[P-0471, 4-chloro-N-[1-[6-(2-cyclopropylethynyl)-7H-pyrrolo[2,3-d]pyrimidin-4-yl]-4-piperidyl]benzenesulfonamide]", "GI50": "< 10"}
{"smiles": "CS(=O)(=O)NC1CCN(c2ncnc3[nH]c(C#CC4CC4)cc23)CC1", "note": "[P-0472, N-[1-[6-(2-cyclopropylethynyl)-7H-pyrrolo[2,3-d]pyrimidin-4-yl]-4-piperidyl]methanesulfonamide]", "GI50": "< 10"}
{"smiles": "O=C1CCCN1c1ccc(S(=O)(=O)NC2CCN(c3ncnc4[nH]c(-c5ccc(Cl)cc5)cc34)CC2)cc1", "note": "[P-0473, N-[1-[6-(4-chlorophenyl)-7H-pyrrolo[2,3-d]pyrimidin-4-yl]-4-piperidyl]-4-(2-oxopyrrolidin-1-yl)benzenesulfonamide]", "GI50": "< 10"}
{"smiles": "CCn1cc(S(=O)(=O)NC2CCN(c3ncnc4[nH]c(-c5ccc(Cl)cc5)cc34)CC2)cn1", "note": "[P-0474, N-[1-[6-(4-chlorophenyl)-7H-pyrrolo[2,3-d]pyrimidin-4-yl]-4-piperidyl]-1-ethyl-pyrazole-4-sulfonamide]", "GI50": "< 10"}
{"smiles": "CCCn1cc(S(=O)(=O)NC2CCN(c3ncnc4[nH]c(-c5ccc(Cl)cc5)cc34)CC2)cn1", "note": "[P-0475, N-[1-[6-(4-chlorophenyl)-7H-pyrrolo[2,3-d]pyrimidin-4-yl]-4-piperidyl]-1-propyl-pyrazole-4-sulfonamide]", "GI50": "< 10"}
{"smiles": "O=S(=O)(NC1CCN(c2ncnc3[nH]c(-c4ccc(Cl)cc4)cc23)CC1)c1ccc(C(F)(F)F)nc1", "note": "[P-0476, N-[1-[6-(4-chlorophenyl)-7H-pyrrolo[2,3-d]pyrimidin-4-yl]-4-piperidyl]-6-(trifluoromethyl)pyridine-3-sulfonamide]", "GI50": "< 10"}
{"smiles": "N#CC1(c2ccc(S(=O)(=O)NC3CCN(c4ncnc5[nH]c(-c6ccc(Cl)cc6)cc45)CC3)cc2)CC1", "note": "[P-0477, N-[1-[6-(4-chlorophenyl)-7H-pyrrolo[2,3-d]pyrimidin-4-yl]-4-piperidyl]-4-(1-cyanocyclopropyl)benzenesulfonamide]", "GI50": "< 10"}
{"smiles": "O=S(=O)(NC1CCN(c2ncnc3[nH]c(-c4ccc(Cl)cc4)cc23)CC1)N1CCCC1", "note": "[P-0478, N-[1-[6-(4-chlorophenyl)-7H-pyrrolo[2,3-d]pyrimidin-4-yl]-4-piperidyl]pyrrolidine-1-sulfonamide]", "GI50": "< 10"}
{"smiles": "CN(C)S(=O)(=O)NC1CCN(c2ncnc3[nH]c(-c4ccc(Cl)cc4)cc23)CC1", "note": "[P-0479, 6-(4-chlorophenyl)-4-[4-(dimethylsulfamoylamino)-1-piperidyl]-7H-pyrrolo[2,3-d]pyrimidine]", "GI50": "< 10"}
{"smiles": "O=S(=O)(NC1CCN(c2ncnc3[nH]c(-c4ccc(Cl)cc4)cc23)CC1)c1cccc(Cl)c1", "note": "[P-0480, 3-chloro-N-[1-[6-(4-chlorophenyl)-7H-pyrrolo[2,3-d]pyrimidin-4-yl]-4-piperidyl]benzenesulfonamide]", "GI50": "< 10"}
{"smiles": "O=S(=O)(NC1CCN(c2ncnc3[nH]c(-c4ccc(Cl)cc4)cc23)CC1)c1ccc(F)cc1", "note": "[P-0481, N-[1-[6-(4-chlorophenyl)-7H-pyrrolo[2,3-d]pyrimidin-4-yl]-4-piperidyl]-4-fluoro-benzenesulfonamide]", "GI50": "< 10"}
{"smiles": "O=S(=O)(NC1CCN(c2ncnc3[nH]c(-c4ccc(Cl)cc4)cc23)CC1)c1ccc(Cl)cc1", "note": "[P-0482, 4-chloro-N-[1-[6-(4-chlorophenyl)-7H-pyrrolo[2,3-d]pyrimidin-4-yl]-4-piperidyl]benzenesulfonamide]", "GI50": "< 10"}
{"smiles": "Cn1cc(-c2cc3c(N4CCC(NS(=O)(=O)c5ccc(N6CCCC6=O)cc5)CC4)ncnc3[nH]2)cn1", "note": "[P-0483, N-[1-[6-(1-methylpyrazol-4-yl)-7H-pyrrolo[2,3-d]pyrimidin-4-yl]-4-piperidyl]-4-(2-oxopyrrolidin-1-yl)benzenesulfonamide]", "GI50": "< 10"}
{"smiles": "CCCn1cc(S(=O)(=O)NC2CCN(c3ncnc4[nH]c(-c5cnn(C)c5)cc34)CC2)cn1", "note": "[P-0484, N-[1-[6-(1-methylpyrazol-4-yl)-7H-pyrrolo[2,3-d]pyrimidin-4-yl]-4-piperidyl]-1-propyl-pyrazole-4-sulfonamide]", "GI50": "< 10"}
{"smiles": "Cn1cc(-c2cc3c(N4CCC(NS(=O)(=O)c5ccc(C(F)(F)F)nc5)CC4)ncnc3[nH]2)cn1", "note": "[P-0485, N-[1-[6-(1-methylpyrazol-4-yl)-7H-pyrrolo[2,3-d]pyrimidin-4-yl]-4-piperidyl]-6-(trifluoromethyl)pyridine-3-sulfonamide]", "GI50": "< 10"}
